Laboratory results taken from patent US5610141 (dated 1997).

Assay: general procedure: Fmoc solid-phase peptide synthesis; Fmoc-Lys(Boc)-Sasrin polymer; Fmoc-amino acid pentafluorophenyl esters; DCC/HOBt; PyBOP
Conditions: whole synthesis, scale 0.6 mmol

(pGlu-Glu-Asp)2 -(E)-DHs (Lys)2
crude mass: yield 430 mg
final purity (method not given): >95%
